± gives the standard error. The uncertainty is large for many entries.
B1: glmS ribozyme (parent)
chain: AUAAAAGCGCCAGAACUACAGAAAUGUAGUUGACGAGGAGGAGGUUUAUCGAAUUUUCGGCGGAUGCCUCCAAA

Variants of: B1
Assay: KM; higher = weaker cofactor use; RNA array
Details: with glucosamine-6-phosphate
Procedure, shortened: (§1)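 Barcoded ribozyme variants, transcribed in situ by E. coli RNA polymerase on sequenced MiSeq chips, were followed via a hybridised Cy3 probe at 37 °C. Glucosamine-6-phosphate ranged from 40 μM to 10 mM in HEPES/KCl/Mg(OAc)2 buffer. kobs came from decay fits to per-tile medians, and kcat and KM from weighted Michaelis–Menten fits.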

| Variant | KM [µM] |
| --- | --- |
| AUAAAAGCGCCAGAGCUACAGAAAUGUAGUUGACGAGGAGGAGGUUUAUCGAAUUUUCUGCGGAUGCCUCCAAA [A15G G59U] | 3070 ± 1700 |
| AUAAAAGCGCCAGAGCUACAGAAAUGUAGUUGACGAGGAGGAGGUUUAUCGAAUUUUCGGCGGAUCCCUCCAAA [A15G G66C] | 833 ± 220 |
| AUAAAAGCGCCAGAGCUACAGAAAUGUAGUUGACGAGGAGGAGGGUUAUCGAAUUUUCGGCGGAUGCCUCCAAA [A15G U45G] | 1730 ± 260 |
| AUAAAAGCGCCAGAGCUACAGAAAUGUAGUUGACGAGGAGGAGGUUCAUCGAAUUUUCGGCGGAUGCCUCCAAA [A15G U47C] | 1660 ± 350 |
| AUAAAAGCGCCAGAGCUACAGAAAUGUAGUUGACGAGGAGGAGGUUUAUCGAACUUUCGGCGGAUGCCUCCAAA [A15G U54C] | 608 ± 330 |
| AUAAAAGCGCCAGAGCUACAGAAAUGUAGUUGACGAGGAGGAGGUUUAUCGAAUUGUCGGCGGAUGCCUCCAAA [A15G U56G] | 972 ± 640 |
| AUAAAAGCGCCAGAGCUACAGAAAUGUAGUUGACGAGGAGGAGGUUUAUCGAAUUUUCGGCGGACGCCUCCAAA [A15G U65C] | 1640 ± 850 |
| AUAAAAGCGCCAGAGCUACAGAAAUGUAGUUGACGAGGAGGAGGUUUAUCGAAUUUUCGGCGGAUGCCACCAAA [A15G U69A] | 86.2 ± 52 |
| AUAAAAGCGCCAGAUCUACAGAAAUGUAGUUGACGAGGGGGAGGUUUAUCGAAUUUUCGGCGGAUGCCUCCAAA [A15U A39G] | 1830 ± 730 |
| AUAAAAGCGCCAGAUCUACAGAAAUGUAGUUGACGAGGAGGAGGUUUUUCGAAUUUUCGGCGGAUGCCUCCAAA [A15U A48U] | 17300 ± 8400 |
| AUAAAAGCGCCAGAUCUACAGAAAUGUAGUUGACGAGGAGGAGGUUUAUCGUAUUUUCGGCGGAUGCCUCCAAA [A15U A52U] | 1610 ± 370 |
| AUAAAAGCGCCAGAUCUACAGAAAUGUAGUUGACGAGGAGGAGGUUUAUGGAAUUUUCGGCGGAUGCCUCCAAA [A15U C50G] | 53.9 ± 41 |
| AUAAAAGCGCCAGAUCUACAGAAAUGUAGUUGACGAGGAGGAGGUUUAUCGAAUUUUCGGCGGAUGCCUACAAA [A15U C70A] | 327 ± 260 |
| AUAAAAGCGCCAGAUCUACAGAAAUGUACUUGACGAGGAGGAGGUUUAUCGAAUUUUCGGCGGAUGCCUCCAAA [A15U G29C] | 2340 ± 910 |
| AUAAAAGCGCCAGAUCUACAGAAAUGUAGUUGACAAGGAGGAGGUUUAUCGAAUUUUCGGCGGAUGCCUCCAAA [A15U G35A] | 241 ± 160 |
| AUAAAAGCGCCAGAUCUACAGAAAUGUAGUUGACGAGGAGAAGGUUUAUCGAAUUUUCGGCGGAUGCCUCCAAA [A15U G41A] | 577 ± 550 |
| AUAAAAGCGCCAGAUCUACAGAAAUGUAGUUGACGAGGAGUAGGUUUAUCGAAUUUUCGGCGGAUGCCUCCAAA [A15U G41U] | 258 ± 200 |
| AUAAAAGCGCCAGAUCUACAGAAAUGUAGUUGACGAGGAGGAAGUUUAUCGAAUUUUCGGCGGAUGCCUCCAAA [A15U G43A] | 162 ± 130 |
| AUAAAAGCGCCAGAUCUACAGAAAUGUAGUUGACGAGGAGGAGUUUGAUCGAAUUUUCGGCGGAUGGCUCCAAA [A15U G44U U47G C67G] | 967 ± 700 |
| AUAAAAGCGCCAGAUCUACAGAAAUGUAGUUGACGAGGAGGAGGUUUAUCGAAUUUUCUGCGGAUGCCUCCAAA [A15U G59U] | 1510 ± 870 |
| AUAAAAGCGCCAGAUCUACAGAAAUGUAGUUGACGAGGAGGAGGUUUAUCGAAUUUUCGGCGGAUUCCUCCAAA [A15U G66U] | 717 ± 180 |
| AUAAAAGCGCCAGAUCUACAGAAAUGUAGUUGACGAGGAGGAGGUAUAUCGAAUUUUCGGCGGAUGCCUCCAAA [A15U U46A] | 2050 ± 300 |
| AUAAAAGCGCCAGAUCUACAGAAAUGUAGUUGACGAGGAGGAGGUUAAUCGAAUUUUCGGCGGAUGCCUCCAAA [A15U U47A] | 1960 ± 890 |
| AUAAAAGCGCCAGAUCUACAGAAAUGUAGUUGACGAGGAGGAGGUUUAUCGAAAUUUCGGCGGAUGCCUCCAAA [A15U U54A] | 1360 ± 360 |
| AUAAAAGCGCCAGAUCUACAGAAAUGUAGUUGACGAGGAGGAGGUUUAUCGAAUGUUCGGCGGAUGCCUCCAAA [A15U U55G] | 2160 ± 1300 |
| AUAAAAGCGCCAGAAAUACAGAAAUGUAGUUGACGAGGAGGAGGUUUUUCGAAUUUUCGGCGGAUGCCUCCAAA [C16A A48U] | 163 ± 44 |
| AUAAAAGCGCCAGAAAUACAGAAAUGUAGUUGACGAGGAGGAGGUUUAUCGAAUUUUCGGCGGAUGGCUCCAAA [C16A C67G] | 269 ± 250 |
| AUAAAAGCGCCAGAAAUACAGAAAUGUAGUUGACGAGGAGGAGGUUUAUCGAAUUUUCGGCGGAUGCCUUCAAA [C16A C70U] | 254 ± 200 |
| AUAAAAGCGCCAGAAAUACAGAAAUGUAAUUGACGAGGAGGAGGUUUAUCGAAUUUUCGGCGGAUGCCUCCAAA [C16A G29A] | 1790 ± 630 |

Single entries from the results shown.
KM [µM] with AUAAAAGCGCCAGAUCUACAGAAAUGUAGUUGACGAGGAGGAGGUUUUUCGAAUUUUCGGCGGAUGCCUCCAAA [A15U A48U] is entered as 17300 ± 8400
KM [µM] with AUAAAAGCGCCAGAUCUACAGAAAUGUAGUUGACGAGGAGGAGGUUAAUCGAAUUUUCGGCGGAUGCCUCCAAA [A15U U47A] is entered as 1960 ± 890
KM [µM] with AUAAAAGCGCCAGAGCUACAGAAAUGUAGUUGACGAGGAGGAGGUUCAUCGAAUUUUCGGCGGAUGCCUCCAAA [A15G U47C] is entered as 1660 ± 350

Variants of: B1
Assay: self-cleavage kobs at 2500 uM GlcN6P; higher = faster cleavage; RNA array
Details: with glucosamine-6-phosphate
Procedure, shortened: as §1

| Variant | self-cleavage kobs at 2500 uM GlcN6P [s⁻¹] |
| --- | --- |
| AUAAAAGCGCCAGAGCUACAGAAAUGUAGUUGACGAGGAGGAGGUUUAUCGAACUUUCGGCGGAUGCCUCCAAA [A15G U54C] | 0.00524 ± 0.0048 |
| AUAAAAGCGCCAGAUCUACAGAAAUGUAGUUGACGAGGGGGAGGUUUAUCGAAUUUUCGGCGGAUGCCUCCAAA [A15U A39G] | 0.00265 ± 0.0013 |
| AUAAAAGCGCCAGAUCUACAGAAAUGUAGUUGACGAGGAGGAGGUUUUUCGAAUUUUCGGCGGAUGCCUCCAAA [A15U A48U] | 1.63e-05 ± 1.1e-05 |

Variants of: B1
Assay: self-cleavage kobs at 10000 uM GlcN6P; higher = faster cleavage; RNA array
Details: with glucosamine-6-phosphate
Procedure, shortened: as §1

| Variant | self-cleavage kobs at 10000 uM GlcN6P [s⁻¹] |
| --- | --- |
| AUAAAAGCGCCAGAUCUACAGAAAUGUAGUUGACGAGGAGGAGGUUUAUGGAAUUUUCGGCGGAUGCCUCCAAA [A15U C50G] | 0.000688 ± 0.00043 |

Variants of: B1
Assay: self-cleavage kobs at 160 uM GlcN6P; higher = faster cleavage; RNA array
Details: with glucosamine-6-phosphate
Procedure, shortened: as §1

| Variant | self-cleavage kobs at 160 uM GlcN6P [s⁻¹] |
| --- | --- |
| AUAAAAGCGCCAGAUCUACAGAAAUGUAGUUGACGAGGAGGAGGUUUAUCGAAUUUUCGGCGGAUGCCUACAAA [A15U C70A] | 2.07e-05 ± 1e-05 |
| AUAAAAGCGCCAGAUCUACAGAAAUGUAGUUGACGAGGAGGAGGUUUAUCGAAUUUUCGGCGGAUUCCUCCAAA [A15U G66U] | 3.04e-05 ± 1.9e-05 |

Variants of: B1
Assay: self-cleavage kobs at 40 uM GlcN6P; higher = faster cleavage; RNA array
Details: with glucosamine-6-phosphate
Procedure, shortened: as §1

| Variant | self-cleavage kobs at 40 uM GlcN6P [s⁻¹] |
| --- | --- |
| AUAAAAGCGCCAGAUCUACAGAAAUGUAGUUGACGAGGAGUAGGUUUAUCGAAUUUUCGGCGGAUGCCUCCAAA [A15U G41U] | 2.17e-05 ± 1.4e-05 |
| AUAAAAGCGCCAGAUCUACAGAAAUGUAGUUGACGAGGAGGAGUUUGAUCGAAUUUUCGGCGGAUGGCUCCAAA [A15U G44U U47G C67G] | 3.45e-05 ± 2.5e-05 |
